At least one compound was matched to its structure with a doubt left.
How the values were obtained:
[1] = tested on: Res-Omm1.3 and Res-Mel270 cells; experiment: Cell viability assay (CCK8), MEKi-resistant cells; format: cell-based; conditions: increasing doses, 4 days; FIG. 2A, B and FIG. 7
Experimental: Cells were plated in 96-well plates, and treated with the indicated concentrations of drugs. […] Cell viability is expressed as a percentage of untreated cells.
To explore mechanisms of drug resistance, MEKi-resistant GNAQ-mutant cell lines were generated by exposing the cells to increasing concentrations of selumetinib for at least four weeks and routinely grown in 1 μM selumetinib, without clonal selection. After continuous exposure, the cell lines Res-Omm1.3 and Res-Mel270 became resistant to selumetinib compared to their parental cells Omm1.3 and Mel270 (FIG. 2A, B).

Omm1.3 and Mel270 cells = experiment: Cell cycle analysis, parental cells; format: cell-based; conditions: increasing doses, 24 hours, FIG. 8
[2] = tested on: metastatic uveal melanoma; conditions: patients, preliminary results [8]; cited from earlier work
[3] = tested on: RAS in Omm1.3 and Mel270 cells; experiment: RAS activity pull down assay, parental cells; format: cell-based; conditions: temporary, normal levels 24 hours after drug removal, FIG. 3C
[4] = tested on: pERK, cyclin D1, pRB, pMEK in Res-Omm1.3 and Res-Mel270 cells; experiment: Immunoblotting of MAPK pathway components, MEKi-resistant cells; format: cell-based
[5] = tested on: Omm1.3 cells overexpressing DDX43; experiment: Cell viability assay, parental cells overexpressing DDX43; format: cell-based; conditions: parental cells transfected with DDX43 vs empty vector; FIG. 4D
[6] = tested on: pERK, cyclin D1, pRB, pMEK, c-Jun, RAS, Spry2 in Omm1.3 and Mel270 cells; experiment: Immunoblotting of MAPK pathway components, parental cells; format: cell-based
[7] = tested on: Res-Omm1.3 and Res-Mel270 cells; experiment: Cell cycle analysis, MEKi-resistant cells; format: cell-based; conditions: increasing doses, 24 hours, FIG. 8
[8] = resistant cells kept in drug-free media for 24 h, then treated again
[9] = parental cells, 24 hours, FIGS. 2C and 2D

SMILES | cell viability: resistance to MEK inhibitor compared to parental cells [1] | cell cycle arrest (Omm1.3 and Mel270 cells) | cyclin D1 [2] | pERK [2] | radiologic response [2] | RAS expression and activity [3] | pMEK ([4]; resistant cells) | cyclin D1 [4, 8] | pERK [4, 8] | pRB [4, 8] | resistance to selumetinib treatments compared to mock cells [5] | Spry2 expression ([6]; GNAQ mutant cells, FIG. 10) | c-Jun ([6]; parental cells) | pMEK ([6]; parental cells) | cyclin D1 [6, 9] | pERK [6, 9] | phospho-retinoblastoma protein (pRB) [6, 9] | Pan-RAS expression ([6]; parental cells, at higher doses and over time, FIG. 3) | cell cycle arrest [7]
CC(=O)Nc1cccc(-n2c(=O)n(C3CC3)c(=O)c3c(Nc4ccc(I)cc4F)n(C)c(=O)c(C)c32)c1 [GSK1120212, trametinib] | cross resistance | – | – | – | – | – | – | – | – | – | – | – | – | – | – | – | – | – | –
Cn1cnc2c(F)c(Nc3ccc(Br)cc3Cl)c(C(=O)NOCCO)cc21 [selumetinib] | resistant | dose-dependent arrest in G1 population | suppression | inhibition | partial radiologic responses | slightly induced | induced | remained unchanged | decreased | remained unchanged | more resistant | downregulated | induced | induced | decrease | decrease | decrease | slightly induced | no cell cycle arrest

Reference: patent US10400285B2, “DDX43 as a biomarker of resistance to MEK1/2 inhibitors” (Memorial Sloan-Kettering Cancer Center, priority 2013, dated 2019)
